According to the supplement of paper PMC10398353:
Structures can show the parent of a compound that is named as a salt. ± gives the standard deviation of the averaged measurements. This is one part of the list. The data scatter; read single values as rough.

Tested on: Salmonella enterica serovar Typhimurium ST313 D23580
Test: normalized bacterial growth (OD600 20 h minus 0 h, interquartile-mean normalized) (fraction of plate interquartile mean); higher = more bacterial growth (less inhibition)
Conditions: LPM (pH 5.8, low phosphate, low Mg2+), concentration: 10 µM, temperature: 37 °C

Row | SMILES | normalized bacterial growth
1 | NS(=O)(=O)c1cc(C2(O)NC(=O)c3ccccc32)ccc1Cl (configuration not stated) | 0.977
2 | CCCCCCCCCCCCCCCC(=O)OC/C=C(C)/C=C/C=C(C)/C=C/C1=C(C)CCCC1(C)C | 0.87
3 | C=CC(N)CCC(=O)O (configuration not stated) [()-gamma-Vinyl GABA] | 1.11
4 | CC(C)c1c(C(=O)Nc2ccccc2)c(-c2ccccc2)c(-c2ccc(F)cc2)n1CC[C@@H](O)C[C@@H](O)CC(=O)O | 1.15
5 | CC(=O)OCC(=O)[C@@]1(O)CC[C@H]2[C@@H]3CCC4=CC(=O)CC[C@]4(C)[C@H]3[C@@H](O)C[C@@]21C | 1.28
6 | CCN[C@H]1CN(CCCOC)S(=O)(=O)c2sc(S(N)(=O)=O)cc21 [Brinzolamide] | 1.18
7 | CC(=O)OCC(=O)[C@@]1(O)CC[C@H]2[C@@H]3CCC4=CC(=O)C=C[C@]4(C)[C@@]3(Cl)[C@@H](Cl)C[C@@]21C | 0.996
8 | O=C(O)CN1C(=O)c2cccc3cccc(c23)C1=O | 0.923
9 | CC(=O)O[C@@H]1C[C@H]2C(C)(C)[C@@H](O)CC[C@]2(C)[C@H]2CC[C@@]3(C)[C@H](c4ccoc4)OC(=O)[C@H]4O[C@]43[C@@]21C [beta-DIHYDROGEDUNOL] | 0.757
10 | CCCCN(CCCC)CCCOC(=O)c1ccc(N)cc1 | 1.14
11 | Cc1ccc(C(=O)c2ccc(CC(=O)O)n2C)cc1 [Tolmetin sodium salt dihydrate] | 1.11
12 | Cc1ccc(C(=O)c2ccc(CC(=O)O)n2C)cc1 | 1.12
13 | COC(=O)Nc1nc2cc(C(=O)c3cccs3)ccc2[nH]1 [Nocodazole] | 0.91
14 | CC(=O)OCC(=O)[C@@]1(O)CC[C@H]2[C@@H]3CCC4=CC(=O)CC[C@]4(C)[C@@]3(F)[C@@H](O)C[C@@]21C | 1.01
15 | CC(=O)OCC(=O)[C@@]1(O)CC[C@H]2[C@@H]3CCC4=CC(=O)CC[C@]4(C)[C@@]3(F)[C@@H](O)C[C@@]21C [Fludrocortisone acetate] | 0.971
16 | O=C(O)CCCCCCCC(=O)O [Azelaic acid] | 1.23
17 | CC(=O)O[C@@H]1C[C@H]2C(C)(C)C(=O)CC[C@]2(C)[C@H]2CC[C@@]3(C)[C@H](c4ccoc4)OC(=O)[C@H]4O[C@]43[C@@]21C | 1.03
18 | CC12CCC3C(CC3(C)C)C(C)(CCC1=O)O2 (configuration not stated) | 0.749
19 | CC(=Cc1ccc(C(=O)O)cc1)c1ccc2c(c1)C(C)(C)CCC2(C)C | 1.04
20 | COc1ccc2c3c([nH]c2c1)[C@H]1C[C@H]2[C@H](C[C@@H](O)[C@H](OC)[C@H]2C(=O)O)CN1CC3 [Reserpinic acid hydrochloride] | 1.32
21 | OCCN1CCN(CC/C=C2/c3ccccc3Sc3ccc(C(F)(F)F)cc32)CC1 [cis-(Z)-Flupenthixol dihydrochloride] | 0.922

Row | SMILES | normalized bacterial growth
22 | COc1c(-c2coc3cc4c(cc3c2=O)CC(O)C(C)(C)O4)ccc2c1C=CC(C)(C)O2 (configuration not stated) | 0.687
23 | Cc1cn[nH]c1 [4-Methylpyrazole hydrochloride] | 0.925
24 | NCCc1c[nH]cn1 [Histamine dihydrochloride] | 0.921
25 | Nc1[nH]cnc2ncnc1-2 | 0.993
26 | CC(=O)[C@@]1(O)CC[C@H]2[C@@H]3C=C(Cl)C4=CC(=O)[C@@H]5C[C@@H]5[C@]4(C)[C@H]3CC[C@@]21C | 0.538
27 | CC[N+](C)(C)c1cccc(O)c1 [Edrophonium chloride] | 1.31
28 | COc1ccc2c(=O)c(OC)c(-c3ccccc3)oc2c1 | 1.07
29 | CN1CCC(=C2c3ccccc3C=Cc3ccccc32)CC1 [Cyproheptadine hydrochloride] | 0.67
30 | NCC(O)C1CCCCCCC1 (configuration not stated) [2-Cyclooctyl-2-hydroxyethylamine hydrochloride] | 0.997
31 | N#Cc1c(-c2ccccc2)no[n+]1[O-] [4-Phenyl-3-furoxancarbonitrile] | 0.991
32 | CC(C)(C)NC[C@@H](O)COc1cccc2c1CCCC2=O [(+) -Levobunolol hydrochloride] | 0.567
33 | CCCNC[C@H](O)COc1ccccc1C(=O)CCc1ccccc1 [(S)-(-)-propafenone hydrochloride] | 0.796
34 | COc1ccc(-c2cc(=O)c3ccccc3o2)cc1 | 0.577
35 | N=C(N)NC(=N)NCCc1ccccc1 | 0.861
36 | C[C@H]1O[C@H](O[C@H]2[C@H](O)[C@@H](O)[C@@H](O[C@H]3[C@H](O)[C@@H](O)C(O)O[C@@H]3CO)O[C@@H]2CO)[C@H](O)[C@@H](O)[C@@H]1N[C@H]1C=C(CO)[C@@H](O)[C@H](O)[C@H]1O (some centres not stated) | 1.28
37 | CC(C)(C=O)Cc1cc(C(C)(C)C)c(O)c(C(C)(C)C)c1 | 1.08
38 | CC(C)(CO)[C@@H](O)C(=O)NCCC(=O)NCCSSCCNC(=O)CCNC(=O)[C@H](O)C(C)(C)CO | 0.969
39 | CN1CCN(CC/C=C2/c3ccccc3Sc3ccc(S(=O)(=O)N(C)C)cc32)CC1 | 0.933
40 | CN1CCN(CC/C=C2/c3ccccc3Sc3ccc(S(=O)(=O)N(C)C)cc32)CC1 [Thiothixene hydrochloride] | 0.995
41 | NC1(C(=O)O)CCCCC1 [1-Amino-1-cyclohexanecarboxylic acid hydrochloride] | 0.748
42 | NNCCc1ccccc1 [Phenelzine sulfate] | 0.63

Some values from the results shown:
Cc1cn[nH]c1 [4-Methylpyrazole hydrochloride] | normalized bacterial growth: 0.925
CN1CCN(CC/C=C2/c3ccccc3Sc3ccc(S(=O)(=O)N(C)C)cc32)CC1 | normalized bacterial growth: 0.933

Next results:

Row | SMILES | normalized bacterial growth
43 | CC(=O)S[C@@H]1CC2=CC(=O)CC[C@]2(C)[C@H]2CC[C@@]3(C)[C@@H](CC[C@@]34CCC(=O)O4)[C@H]12 | 0.892
44 | CC(=O)S[C@@H]1CC2=CC(=O)CC[C@]2(C)[C@H]2CC[C@@]3(C)[C@@H](CC[C@@]34CCC(=O)O4)[C@H]12 [Spironolactone] | 0.951 ± 0.1
45 | CCCc1cc(C(N)=S)ccn1 | 0.992
46 | CC(Cc1cccc(C(F)(F)F)c1)NCCOC(=O)c1ccccc1 (configuration not stated) | 0.511
47 | CNc1ncnc2c1ncn2[C@@H]1O[C@H](CO)[C@@H](O)[C@H]1O [N6-Methyladenosine] | 1.04
48 | CNc1ncnc2c1ncn2[C@@H]1O[C@H](CO)[C@@H](O)[C@H]1O [N6-methyladenosine] | 1.18
49 | N[C@@H](CC(=O)O)C(=O)O [L-Aspartic acid] | 0.862
50 | C[C@@H](O)[C@H]1C(=O)N2C(C(=O)O)=C(SCCNC=N)C[C@H]12 [Imipenem] | 0.819
51 | c1ccc2c(c1)CCCC2C1=NCCN1 (configuration not stated) [Tetrahydrozoline hydrochloride] | 1.17
52 | C=C(C)[C@@H]1CC[C@]2(C(=O)O)CC[C@]3(C)[C@H](CC[C@@H]4[C@@]5(C)CC[C@H](O)C(C)(C)[C@@H]5CC[C@]43C)[C@@H]12 | 1.0001 ± 0.00016
53 | O=C(/C=C/c1ccc(O)c(O)c1)c1ccc(O[C@@H]2O[C@H](CO)[C@@H](O)[C@H](O)[C@H]2O)c(O)c1O | 0.972
54 | Oc1ccc2c(c1)OC[C@]1(O)Cc3cc(O)c(O)cc3[C@H]21 | 0.573
55 | CC(C)=CCC[C@](C)(O)[C@H]1CC[C@]2(C)[C@@H]1CC[C@@H]1[C@@]3(C)CCC(=O)C(C)(C)[C@@H]3CC[C@]12C | 0.993
56 | CN=c1nc(-c2ccccc2)n(-c2ccccc2)s1 | 0.836
57 | O=C1NCCN1c1ncc([N+](=O)[O-])s1 [Niridazole] | 0.0464
58 | C1N2CN3CN1CN(C2)C3 | 1.07
59 | O=C(O)C1=C[C@@H](O)[C@@H](O)[C@H](O)C1 | 1.11
60 | CCCCCN(C)CCC(O)(P(=O)(O)O)P(=O)(O)O [Ibandronate sodium] | 1.07
61 | CC(C)=CCC/C(C)=C/CC/C(C)=C/CC/C(C)=C/C(=O)O | 0.514
62 | CCCCCC1C(=O)CCC1CC(=O)OC (configuration not stated) | 0.909
63 | Nc1ccc(S(=O)(=O)NC(=O)c2ccccc2)cc1 | 1.37

Row | SMILES | normalized bacterial growth
64 | C[N+](C)(C)CCOP(=O)(O)OP(=O)([O-])OC[C@H]1O[C@@H](n2ccc(N)nc2=O)[C@H](O)[C@@H]1O [Citicoline sodium] | 1.05
65 | C[N+](C)(C)CCOP(=O)(O)OP(=O)([O-])OC[C@H]1O[C@@H](n2ccc(N)nc2=O)[C@H](O)[C@@H]1O | 1.12
66 | CC(C)c1nc(N(C)S(C)(=O)=O)nc(-c2ccc(F)cc2)c1/C=C/[C@@H](O)C[C@@H](O)CC(=O)O | 0.983
67 | CCNC(=O)[C@H]1O[C@@H](n2cnc3c(N)nc(NCCc4ccc(CCC(=O)O)cc4)nc32)[C@H](O)[C@@H]1O | 1.13
68 | CNCCNS(=O)(=O)c1cccc2cnccc12 [H-8 dihydrochloride] | 0.968
69 | O=c1cc(-c2ccc(O)cc2)oc2cc(O[C@@H]3O[C@H](CO)[C@@H](O)[C@H](O)[C@H]3O[C@@H]3OC[C@](O)(CO)[C@H]3O)cc(O)c12 | 0.926
70 | C[C@](N)(Cc1ccc(O)cc1)C(=O)O [L-alpha-Methyl-p-tyrosine] | 1.26
71 | CS(=O)(=O)c1ccc([C@@H](O)[C@@H](CF)NC(=O)C(Cl)Cl)cc1 | 0.071
72 | CS(=O)(=O)c1ccc([C@@H](O)[C@@H](CF)NC(=O)C(Cl)Cl)cc1 [Florfenicol] | 0.012
73 | CCN(CC)CCCC(C)Nc1ccnc2cc(Cl)ccc12 (configuration not stated) [Chloroquine diphosphate] | 1.23
74 | Oc1ccc(C2CNCCc3c2cc(O)c(O)c3Cl)cc1 (configuration not stated) [Fenoldopam bromide] | 1.19
75 | CC(=O)N[C@@H](Cc1c[nH]c2ccccc12)C(=O)O | 1.14
76 | CC(C(=O)O)c1cccc(Oc2ccccc2)c1 (configuration not stated) | 1.27
77 | CC(C(=O)O)c1cccc(Oc2ccccc2)c1 (configuration not stated) [Fenoprofen calcium salt dihydrate] | 1.11
78 | O=C(O)CN(CCN(CC(=O)O)CC(=O)O)CC(=O)O.[Na+].[Na+].[Na+] | 0.271
79 | O=C1OC(c2ccc(O)cc2)(c2ccc(O)cc2)c2ccccc21 | 1.07
80 | COc1cc(OC)c2c(=O)cc(-c3ccccc3)oc2c1 | 0.737
81 | COc1ccc2c(C)cc(=O)oc2c1 | 1.05
82 | COC(=O)C[C@H]1C(C)(C)[C@@H](O)[C@@H]2CC3=C4C=C(OC)O[C@@H](c5ccoc5)[C@]4(C)CCC3[C@@]1(C)C2=O (stereo partly drawn) [3-DEOXO-3beta-HYDROXYMEXICANOLIDE 16-ENOL ETHER] | 0.703

Shown with each value named: entries from further up.
N[C@@H](CC(=O)O)C(=O)O [L-Aspartic acid]
  normalized bacterial growth: 0.862
C[C@@H](O)[C@H]1C(=O)N2C(C(=O)O)=C(SCCNC=N)C[C@H]12 [Imipenem]
  normalized bacterial growth: 0.819
